Measured values from publication PMC7704523.
No constants are given. Whether binding was seen depends on the method and setting. Binding seen in cells or lysates may run through a third protein. Binding calls can cover weak binding; strength is not graded here.

Chains of the proteins cited; added tags and fusions are not shown. Lines headed by an entry give the natural chain unless they say otherwise; changes in a name come on top. Residues count along the entry.
UniProt Q60932: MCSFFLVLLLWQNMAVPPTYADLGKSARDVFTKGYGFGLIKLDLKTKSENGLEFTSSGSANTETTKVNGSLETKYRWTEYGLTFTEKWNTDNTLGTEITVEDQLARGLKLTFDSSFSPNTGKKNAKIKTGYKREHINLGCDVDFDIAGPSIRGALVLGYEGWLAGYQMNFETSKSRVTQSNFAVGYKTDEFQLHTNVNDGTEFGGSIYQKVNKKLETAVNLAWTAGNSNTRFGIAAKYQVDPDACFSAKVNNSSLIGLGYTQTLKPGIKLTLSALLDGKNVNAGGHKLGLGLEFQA
UniProt Q3UMR5, residues 50-350: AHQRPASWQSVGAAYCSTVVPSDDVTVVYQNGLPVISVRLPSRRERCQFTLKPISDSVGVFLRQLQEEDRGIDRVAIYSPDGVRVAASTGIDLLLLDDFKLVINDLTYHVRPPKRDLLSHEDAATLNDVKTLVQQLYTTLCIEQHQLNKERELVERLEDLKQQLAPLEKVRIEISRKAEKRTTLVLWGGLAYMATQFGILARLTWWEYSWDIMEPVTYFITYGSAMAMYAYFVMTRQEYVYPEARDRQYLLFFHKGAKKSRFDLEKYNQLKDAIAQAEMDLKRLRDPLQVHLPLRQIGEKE

Molecular target: VDAC1 (mouse (endogenous in cardiomyocytes/heart of C57BL/6JOlaHsd mice)) (UniProt Q60932)
Test: proximity ligation; in situ PLA in isolated adult mouse cardiomyocytes from SD and HFHSD mice at 16 weeks of diet; interactions per cell counted by confocal microscopy, as fold of SD

- binding: binds
Substance: MCU (from UniProt Q3UMR5 50-350)
